Test results taken from patent US20180264110A1.

Biological target: BTLA, PNGaseF +
Assay: dot blot: deglycosylated BTLA (PNGaseF +), 0.5 µg/well on nitrocellulose, anti-mouse-HRP detection; well taken from the layout of FIG. 1A

- binding: binds
B1: STC626 (antibody, V domains shown)
VH: QIQLVQSGPELKKPGETVKISCKASGYTFTNYGMNWVKQAPGKGLKWMGWINTNTGEPTYAEEFKGRIAFSLESSASTAYLQINNLKNEDTATYFCAREGVRRGGYFFDYWGQGTTLTVSS
VL: DIQMTQSPASLSVSVGETVTITCRASENIYSNLAWYQQKQGKSPQLLVYAATNLADGVPSRFSGSGSGTQYSLKINSLQSEDFGSYHCQHFWGFPFTFGAGTKLEIKR

No constants are given. Whether binding was seen depends on the method and setting. Binding can be weak; no strength is given.
